These are yes or no findings as the source states them, for the method shown. Binding seen in cells or lysates may run through a third protein. Some entries that bind do so weakly or less than the wild type. Where a sequence is shown, tags or fusion partners need not be part of it.
Columns and labels:
NBCe1-B-eGFP [1] = molecular target: T1, NBCe1-B-eGFP (UniProt Q9Y6R1); experiment: FRET or BRET; live HEK293T cells co-transfected with fluorescent-tagged constructs for 16-18 h; confocal FRET imaging at 37 °C; FRET ratios; some cells stimulated with forskolin/IBMX, co-expressing E-Syt3, ORP5 or ORP8, or depleted of ORP5
T1 sequence: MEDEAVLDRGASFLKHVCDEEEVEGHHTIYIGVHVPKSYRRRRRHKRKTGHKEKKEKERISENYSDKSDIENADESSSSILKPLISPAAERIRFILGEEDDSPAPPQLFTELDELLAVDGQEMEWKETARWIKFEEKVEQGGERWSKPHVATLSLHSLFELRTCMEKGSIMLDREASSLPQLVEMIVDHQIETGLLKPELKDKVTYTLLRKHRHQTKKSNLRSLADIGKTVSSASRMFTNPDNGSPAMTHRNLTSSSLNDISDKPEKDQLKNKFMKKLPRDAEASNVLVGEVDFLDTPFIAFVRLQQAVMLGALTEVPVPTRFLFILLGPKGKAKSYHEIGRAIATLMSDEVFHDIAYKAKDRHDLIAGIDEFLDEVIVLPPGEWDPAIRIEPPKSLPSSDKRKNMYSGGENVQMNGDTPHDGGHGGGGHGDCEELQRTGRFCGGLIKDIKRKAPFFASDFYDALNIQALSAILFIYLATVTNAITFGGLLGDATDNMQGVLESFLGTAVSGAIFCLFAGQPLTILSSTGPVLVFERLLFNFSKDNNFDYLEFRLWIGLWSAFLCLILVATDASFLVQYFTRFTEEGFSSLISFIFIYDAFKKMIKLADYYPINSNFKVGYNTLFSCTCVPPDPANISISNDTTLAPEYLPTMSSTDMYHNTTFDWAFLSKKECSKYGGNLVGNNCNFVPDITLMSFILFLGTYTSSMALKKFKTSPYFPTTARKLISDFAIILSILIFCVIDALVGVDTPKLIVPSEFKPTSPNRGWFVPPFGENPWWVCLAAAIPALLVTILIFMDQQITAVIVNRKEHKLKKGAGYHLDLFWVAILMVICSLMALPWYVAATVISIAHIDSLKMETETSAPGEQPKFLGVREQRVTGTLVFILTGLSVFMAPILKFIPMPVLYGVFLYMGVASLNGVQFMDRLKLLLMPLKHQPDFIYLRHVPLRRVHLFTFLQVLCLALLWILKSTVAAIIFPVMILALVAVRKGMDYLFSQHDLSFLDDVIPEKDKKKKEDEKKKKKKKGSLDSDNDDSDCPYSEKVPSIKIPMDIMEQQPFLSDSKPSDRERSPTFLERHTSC

Protein sequences, listed by entry. Tags and fused reporters are not part of them.
UniProt P13569: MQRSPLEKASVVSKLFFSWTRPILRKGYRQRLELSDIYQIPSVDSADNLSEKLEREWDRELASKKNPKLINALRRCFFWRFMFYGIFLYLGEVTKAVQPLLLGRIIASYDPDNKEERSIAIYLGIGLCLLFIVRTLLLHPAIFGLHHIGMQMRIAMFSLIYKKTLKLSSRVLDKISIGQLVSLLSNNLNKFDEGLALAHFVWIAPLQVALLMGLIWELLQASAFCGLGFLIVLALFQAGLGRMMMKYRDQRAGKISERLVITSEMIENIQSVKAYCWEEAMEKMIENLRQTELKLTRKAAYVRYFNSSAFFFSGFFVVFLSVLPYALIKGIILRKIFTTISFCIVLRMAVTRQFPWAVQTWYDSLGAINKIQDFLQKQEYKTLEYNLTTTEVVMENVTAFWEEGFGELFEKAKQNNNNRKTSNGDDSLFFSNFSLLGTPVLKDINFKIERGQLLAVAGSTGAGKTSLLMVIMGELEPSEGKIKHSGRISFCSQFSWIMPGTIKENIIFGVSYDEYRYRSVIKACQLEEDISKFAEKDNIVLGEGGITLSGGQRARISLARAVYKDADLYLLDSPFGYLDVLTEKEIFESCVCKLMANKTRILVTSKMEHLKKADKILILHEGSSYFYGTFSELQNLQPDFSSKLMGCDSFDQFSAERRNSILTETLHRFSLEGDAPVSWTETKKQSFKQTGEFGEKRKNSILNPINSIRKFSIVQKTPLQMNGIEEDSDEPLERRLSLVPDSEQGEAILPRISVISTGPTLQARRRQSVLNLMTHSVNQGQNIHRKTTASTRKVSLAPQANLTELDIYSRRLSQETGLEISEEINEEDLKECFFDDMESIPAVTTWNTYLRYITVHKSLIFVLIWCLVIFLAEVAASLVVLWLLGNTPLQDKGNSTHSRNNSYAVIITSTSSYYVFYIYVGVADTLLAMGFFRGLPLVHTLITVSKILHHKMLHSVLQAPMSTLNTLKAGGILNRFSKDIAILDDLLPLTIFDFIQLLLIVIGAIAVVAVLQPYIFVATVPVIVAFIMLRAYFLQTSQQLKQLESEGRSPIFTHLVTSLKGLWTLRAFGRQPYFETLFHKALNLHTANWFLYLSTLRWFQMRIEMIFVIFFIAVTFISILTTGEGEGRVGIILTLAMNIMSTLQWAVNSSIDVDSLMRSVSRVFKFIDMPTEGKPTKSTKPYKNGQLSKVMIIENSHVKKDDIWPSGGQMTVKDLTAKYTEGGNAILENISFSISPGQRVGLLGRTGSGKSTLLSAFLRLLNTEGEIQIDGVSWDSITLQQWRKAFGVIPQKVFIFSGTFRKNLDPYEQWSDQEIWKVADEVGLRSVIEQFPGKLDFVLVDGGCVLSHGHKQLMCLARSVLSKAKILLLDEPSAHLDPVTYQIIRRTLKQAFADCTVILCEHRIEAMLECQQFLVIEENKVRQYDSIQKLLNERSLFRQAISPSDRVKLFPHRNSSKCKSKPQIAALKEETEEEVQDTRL

CFTR-GFP [2] = molecular target: CFTR-GFP (UniProt P13569); experiment: as above
(Δ1-95)NBCe1-B = molecular target: T2, (Δ1-95)NBCe1-B (UniProt Q9Y6R1); experiment: co-IP; lysates of transfected HEK293T cells (PBS with 1% Triton X-100, phosphatase and protease inhibitors, pH 7.4); antibodies overnight at 4 °C, Sepharose beads for 4 h, three washes, blots; some cells co-expressing E-Syt3 or E3C2C, or depleted of PI(4,5)P2 (FRB + FKBP-5PIPase, 0.5 µM rapamycin for 8 min)
T2 sequence: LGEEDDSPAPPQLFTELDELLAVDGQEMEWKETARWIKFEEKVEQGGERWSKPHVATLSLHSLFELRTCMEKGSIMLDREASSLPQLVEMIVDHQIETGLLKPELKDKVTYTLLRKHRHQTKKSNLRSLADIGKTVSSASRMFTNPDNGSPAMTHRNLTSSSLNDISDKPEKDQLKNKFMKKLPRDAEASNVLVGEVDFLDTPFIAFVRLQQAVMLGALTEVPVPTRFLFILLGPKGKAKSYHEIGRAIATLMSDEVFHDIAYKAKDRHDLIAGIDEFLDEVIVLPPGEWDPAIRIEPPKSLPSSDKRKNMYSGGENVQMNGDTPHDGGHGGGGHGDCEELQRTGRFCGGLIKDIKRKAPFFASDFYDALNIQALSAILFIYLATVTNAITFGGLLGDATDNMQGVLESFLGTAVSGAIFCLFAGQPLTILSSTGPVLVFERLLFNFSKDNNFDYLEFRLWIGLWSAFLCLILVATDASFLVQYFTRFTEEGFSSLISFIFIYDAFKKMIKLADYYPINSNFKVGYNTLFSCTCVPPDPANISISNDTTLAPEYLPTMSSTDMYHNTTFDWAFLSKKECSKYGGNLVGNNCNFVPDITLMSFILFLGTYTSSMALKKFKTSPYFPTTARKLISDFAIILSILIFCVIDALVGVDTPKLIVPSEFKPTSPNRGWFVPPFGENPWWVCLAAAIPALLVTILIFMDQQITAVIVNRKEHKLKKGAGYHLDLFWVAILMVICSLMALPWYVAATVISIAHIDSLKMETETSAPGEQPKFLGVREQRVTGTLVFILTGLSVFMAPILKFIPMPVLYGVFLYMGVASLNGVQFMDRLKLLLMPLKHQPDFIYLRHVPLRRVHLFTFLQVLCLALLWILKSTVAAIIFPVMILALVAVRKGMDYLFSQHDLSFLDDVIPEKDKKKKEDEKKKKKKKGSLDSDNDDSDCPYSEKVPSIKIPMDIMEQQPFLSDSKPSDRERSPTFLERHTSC

NBCe1-B(R44A) = molecular target: T3, NBCe1-B(R44A) (UniProt Q9Y6R1); experiment: as above
T3 sequence: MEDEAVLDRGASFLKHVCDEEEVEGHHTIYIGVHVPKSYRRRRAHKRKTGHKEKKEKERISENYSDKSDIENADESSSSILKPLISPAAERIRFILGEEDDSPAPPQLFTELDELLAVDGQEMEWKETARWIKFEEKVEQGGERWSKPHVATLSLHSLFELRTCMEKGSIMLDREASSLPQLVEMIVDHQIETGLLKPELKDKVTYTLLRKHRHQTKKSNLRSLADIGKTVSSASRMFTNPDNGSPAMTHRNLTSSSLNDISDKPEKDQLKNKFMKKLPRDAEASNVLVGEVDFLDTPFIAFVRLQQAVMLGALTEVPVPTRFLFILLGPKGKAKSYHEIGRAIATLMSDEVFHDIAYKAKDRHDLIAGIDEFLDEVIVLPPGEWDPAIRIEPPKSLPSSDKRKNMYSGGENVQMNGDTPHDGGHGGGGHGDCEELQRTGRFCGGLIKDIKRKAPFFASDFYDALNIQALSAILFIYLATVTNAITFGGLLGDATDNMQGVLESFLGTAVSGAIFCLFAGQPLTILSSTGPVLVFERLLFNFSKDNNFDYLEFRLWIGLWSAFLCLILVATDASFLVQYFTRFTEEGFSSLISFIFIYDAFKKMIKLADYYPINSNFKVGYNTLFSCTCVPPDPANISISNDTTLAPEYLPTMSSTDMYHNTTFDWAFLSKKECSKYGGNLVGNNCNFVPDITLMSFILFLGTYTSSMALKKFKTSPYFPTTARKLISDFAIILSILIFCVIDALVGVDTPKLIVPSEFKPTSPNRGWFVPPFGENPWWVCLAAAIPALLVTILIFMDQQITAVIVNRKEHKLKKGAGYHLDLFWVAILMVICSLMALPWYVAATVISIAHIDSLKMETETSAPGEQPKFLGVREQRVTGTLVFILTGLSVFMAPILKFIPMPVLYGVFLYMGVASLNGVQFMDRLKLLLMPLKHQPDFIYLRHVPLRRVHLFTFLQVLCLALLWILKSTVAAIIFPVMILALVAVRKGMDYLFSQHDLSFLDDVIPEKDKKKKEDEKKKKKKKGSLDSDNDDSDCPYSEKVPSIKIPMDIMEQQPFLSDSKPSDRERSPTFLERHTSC

NBCe1-B-eGFP [3] = molecular target: T1, NBCe1-B-eGFP; experiment: as above
CFTR-GFP [4] = molecular target: CFTR-GFP (UniProt P13569); experiment: as above

Measured: binding

B1: E-Syt2 (fluorescent-tagged, FRET) (protein, UniProt A0FGR8 1-921)
chain: MTANRDAALSSHRHPGCAQRPRTPTFASSSQRRSAFGFDDGNFPGLGERSHAPGSRLGARRRAKTARGLRGHRQRGAGAGLSRPGSARAPSPPRPGGPENPGGVLSVELPGLLAQLARSFALLLPVYALGYLGLSFSWVLLALALLAWCRRSRGLKALRLCRALALLEDEERVVRLGVRACDLPAWVHFPDTERAEWLNKTVKHMWPFICQFIEKLFRETIEPAVRGANTHLSTFSFTKVDVGQQPLRINGVKVYTENVDKRQIILDLQISFVGNCEIDLEIKRYFCRAGVKSIQIHGTMRVILEPLIGDMPLVGALSIFFLRKPLLEINWTGLTNLLDVPGLNGLSDTIILDIISNYLVLPNRITVPLVSEVQIAQLRFPVPKGVLRIHFIEAQDLQGKDTYLKGLVKGKSDPYGIIRVGNQIFQSRVIKENLSPKWNEVYEALVYEHPGQELEIELFDEDPDKDDFLGSLMIDLIEVEKERLLDEWFTLDEVPKGKLHLRLEWLTLMPNASNLDKVLTDIKADKDQANDGLSSALLILYLDSARNLPSGKKISSNPNPVVQMSVGHKAQESKIRYKTNEPVWEENFTFFIHNPKRQDLEVEVRDEQHQCSLGNLKVPLSQLLTSEDMTVSQRFQLSNSGPNSTIKMKIALRVLHLEKRERPPDHQHSAQVKRPSVSKEGRKTSIKSHMSGSPGPGGSNTAPSTPVIGGSDKPGMEEKAQPPEAGPQGLHDLGRSSSSLLASPGHISVKEPTPSIASDISLPIATQELRQRLRQLENGTTLGQSPLGQIQLTIRHSSQRNKLIVVVHACRNLIAFSEDGSDPYVRMYLLPDKRRSGRRKTHVSKKTLNPVFDQSFDFSVSLPEVQRRTLDVAVKNSGGFLSKDKGLLGKVLVALASEELAKGWTQWYDLTEDGTRPQAMT
binds: NBCe1-B-eGFP [1] | CFTR-GFP [2]

B2: E-Syt3-Myc (protein, UniProt A0FGR9 1-886)
chain: MRAEEPCAPGAPSALGAQRTPGPELRLSSQLLPELCTFVVRVLFYLGPVYLAGYLGLSITWLLLGALLWMWWRRNRRGKLGRLAAAFEFLDNEREFISRELRGQHLPAWIHFPDVERVEWANKIISQTWPYLSMIMESKFREKLEPKIREKSIHLRTFTFTKLYFGQKCPRVNGVKAHTNTCNRRRVTVDLQICYIGDCEISVELQKIQAGVNGIQLQGTLRVILEPLLVDKPFVGAVTVFFLQKPHLQINWTGLTNLLDAPGINDVSDSLLEDLIATHLVLPNRVTVPVKKGLDLTNLRFPLPCGVIRVHLLEAEQLAQKDNFLGLRGKSDPYAKVSIGLQHFRSRTIYRNLNPTWNEVFEFMVYEVPGQDLEVDLYDEDTDRDDFLGSLQICLGDVMTNRVVDEWFVLNDTTSGRLHLRLEWLSLLTDQEVLTEDHGGLSTAILVVFLESACNLPRNPFDYLNGEYRAKKLSRFARNKVSKDPSSYVKLSVGKKTHTSKTCPHNKDPVWSQVFSFFVHNVATERLHLKVLDDDQECALGMLEVPLCQILPYADLTLEQRFQLDHSGLDSLISMRLVLRFLQVEERELGSPYTGPEALKKGPLLIKKVATNQGPKAQPQEEGPTDLPCPPDPASDTKDVSRSTTTTTSATTVATEPTSQETGPEPKGKDSAKRFCEPIGEKKSPATIFLTVPGPHSPGPIKSPRPMKCPASPFAWPPKRLAPSMSSLNSLASSCFDLADISLNIEGGDLRRRQLGEIQLTVRYVCLRRCLSVLINGCRNLTPCTSSGADPYVRVYLLPERKWACRKKTSVKRKTLEPLFDETFEFFVPMEEVKKRSLDVAVKNSRPLGSHRRKELGKVLIDLSKEDLIKGFSQWYELTPNGQPRS
binds: (Δ1-95)NBCe1-B | NBCe1-B(R44A) | NBCe1-B-eGFP [3] | CFTR-GFP [4]
